± gives the standard deviation of the averaged measurements. Most values lie at the floor of the assay. Slopes are relative: functional sequences can read slightly below zero.

This data set deals with Saccharomyces cerevisiae PS128 hsf1 delta, HSF1(1-493) fusion. Description: growth estimate (transactivation domain function in HSF1 fusion, heat-shock survival) (a.u. (slope of normalised read count over time)); higher = stronger growth at 37°C, i.e. more transactivation activity. Conditions: library: random library. On the procedure: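 Random 60-nt DNA library encoding peptides of up to 20 aa, fused to the C-terminus of yeast HSF1 residues 1-493 (C-terminal TAD deleted) and expressed from the native HSF1 promoter on a CEN plasmid in hsf1-deleted S. cerevisiae PS128. Cells were selected at 37°C on -trp 5-FOA plates for 0, 2, 4, 6 and 8 days and amplicons were sequenced. Growth estimate is the slope of a robust linear fit of total-sum-normalised read counts (normalised to the first time point) over time, using at least 2 replicates. Sequences are classed functional (TAD activity) above a threshold of -0.13, set from stop-codon control sequences.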
Consider IRFFRTQRFDSTNLGEGGSR, for which the growth estimate was < -0.25.

For the substance GKLHTSVSDYKTNVPGGHQT, the growth estimate was < -0.25.

For the substance LELNFYKEAAIVTGAVMCGL, the growth estimate was < -0.25.

Regarding SSTPALRMDISEHSHVRRRP, the growth estimate was < -0.25.

As for MSGSVIWTRTQKFRHPRALI, the growth estimate is < -0.25.

In the case of RVPDTPRVLRTT, the growth estimate was < -0.25.

As to GQSSLSWDAMPLSGSCQQHT, the growth estimate is -0.206.

Take QGLPIFRRSCGGAL: the growth estimate is < -0.25.

For the substance GHELVQSGMQPSAARGHRLS, the growth estimate is < -0.25.

For LQPWTPRLCLTAEVESTVLR, the growth estimate was < -0.25.

Regarding TILIGDTCQVGNRISPAGFV, the growth estimate was < -0.25.

As for IVSRR, the growth estimate was < -0.25.

Regarding IGVYLPRMYTYGTVIRAILA, the growth estimate was < -0.25.

As for AIITRGGIGG, the growth estimate was < -0.25.

On to DTRCRKPKRLAKKLGIAYHT, for which the growth estimate is < -0.25.

In the case of LSTLATKLCDSGVFG, the growth estimate is < -0.25.

With YAKHAVTKPLCSP, the growth estimate is < -0.25.

As for FTDRCLGRRAITVSSATLKP, the growth estimate was < -0.25.

Turning to DVQLAFN, the growth estimate was < -0.25.

In the case of VRVRMTFRSF, the growth estimate was < -0.25.

Consider GSASKWQVYPKAIASLLGRI, for which the growth estimate was < -0.25.

As to FRIRHVRQISPIDPVVRS, the growth estimate is < -0.25.

In the case of RFLFPIFVL, the growth estimate is < -0.25.

Consider GLGNVC, for which the growth estimate was -0.25.

As to PSEFLTAARNKGSNAHD, the growth estimate is -0.246.

On to KIIEGCTDPRVEADPAVNVS, for which the growth estimate is < -0.25.

Take VCVDYVRSTQKG: the growth estimate was < -0.25.

With ASG, the growth estimate was < -0.25.

In the case of LGGSGCQDARRQHVEHLSHR, the growth estimate was < -0.25.

For the substance EHA, the growth estimate is < -0.25.

With LRSSCDYHVGQF, the growth estimate was < -0.25.

For VGCAQLIYYEAL, the growth estimate was < -0.25.

With TLFNGAQGAS, the growth estimate is < -0.25.

TREMPQCTWKRTAILSTGNV: the growth estimate is < -0.25.

As for KQTTKYKFR, the growth estimate is < -0.25.

In the case of FTRGHGERAGRHLASPRNDT, the growth estimate is < -0.25.

On to VYFAELRDFRRFNMRMVLAY, for which the growth estimate is < -0.25.

Regarding VSPIETTLSE, the growth estimate was < -0.25.

Take FIRTAA: the growth estimate is < -0.25.

Consider GGRYKY, for which the growth estimate was -0.246.

As for SGTLWTR, the growth estimate was < -0.25.

With RSTVVWDINHVTRMLDWDFR, the growth estimate is -0.2.

Regarding VYAPAPVIL, the growth estimate is < -0.25.

IPQRLIQGCNFSLTSVRSHT: the growth estimate was < -0.25.

As to PGNFQGD, the growth estimate was < -0.25.

In the case of QTLL, the growth estimate was < -0.25.

Take AAPHTMQAKYSDRYTTAHRS: the growth estimate is -0.244.

On to KAEGASGL, for which the growth estimate was < -0.25.

For the substance RTQALSY, the growth estimate was < -0.25.

Take LTK: the growth estimate is -0.2485 ± 0.0022.

Take RRGTHFPLPHVWRIYSSEHQ: the growth estimate was < -0.25.

As for WPAHHLTQLWCIVVSEGLPR, the growth estimate was -0.172.

Take YRYAWGSTARISSL: the growth estimate was < -0.25.

For VSLKLKDMTSSRLPVDREYS, the growth estimate is < -0.25.

For the substance TQENWSGGSLDTTRP, the growth estimate was < -0.25.

On to YHVPTVNTSECGFVR, for which the growth estimate was < -0.25.

Consider LSTSNKDRTHRDLGFIGGGL, for which the growth estimate is < -0.25.

As to TAIRTGYVPEANILSATICR, the growth estimate is < -0.25.

On to LDQTINSVCIDR, for which the growth estimate was < -0.25.

Take TRKGSTDNSALRLCRSIRTT: the growth estimate is < -0.25.

For TGGPRVGGPGRLTKSPANG, the growth estimate is < -0.25.

Regarding TKPSEGT, the growth estimate is < -0.25.

IDGS: the growth estimate was < -0.25.

ANDERILAWLWKSSSRERSR: the growth estimate was < -0.25.

Regarding SAGGC, the growth estimate was < -0.25.

On to RASEIGTETRSGPPIMCVAP, for which the growth estimate is < -0.25.

Turning to LVALDSSNRANHQGGSFCCR, the growth estimate is < -0.25.

Take RSIVLIREDTIRVQVTYIQS: the growth estimate is < -0.25.

In the case of HTGQAGGGAKNSAYPRRPNM, the growth estimate is < -0.25.

Turning to YCWSFFLVSVANRGKPQLSF, the growth estimate was -0.246.

In the case of WVQGYLGRDKSCKAEGGV, the growth estimate was < -0.25.

On to HDPPR, for which the growth estimate was < -0.25.

As to LQS, the growth estimate is < -0.25.

CSDSRGWLDKSNKNPFLGSR: the growth estimate is < -0.25.

For FNDT, the growth estimate was < -0.25.

In the case of NQENTRIHAGR, the growth estimate was < -0.25.

The record behind these values is the supplement of paper PMC5949888.
